Values from PubChem BioAssay AID1159584 (Peter MacCallum Cancer Centre, 2016)
This is a random part of about 18,000 deposited reagents. Not stated in the record: the amount of reagent, the time to read-out.

Assay: 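Knock-downs that harm CDH1-null cells more than parental MCF10A cells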 (primary screen)
System: human MCF10A breast epithelial cells, parental and CDH1-null
Knock-down reagent: siRNA against human genes
Measured: 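Cell viability by CellTiter-Glo ATP luminescence, each line scaled to the mean of mock wells across plates, then CDH1-null over parental ratio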
Direction: CDH1-null / parental viability ratio: higher = CDH1-null cells survive relatively better than parental; CDH1-null viability vs mock: higher = more viable CDH1-null cells; parental viability vs mock: higher = more viable parental cells

CDH1-null / parental viability ratio | CDH1-null viability vs mock (fraction of mock) | parental viability vs mock (fraction of mock) | target
1.12 | 1.1 | 0.98 | ALG8 (ALG8 alpha-1,3-glucosyltransferase)
1.17 | 0.91 | 0.78 | PPP2CA (protein phosphatase 2 catalytic subunit alpha)
1.25 | 0.94 | 0.75 | CHRM4 (cholinergic receptor muscarinic 4)
0.99 | 0.71 | 0.72 | RNF207 (ring finger protein 207)
1.08 | 1.15 | 1.06 | FLAD1 (flavin adenine dinucleotide synthetase 1)
0.63 | 0.49 | 0.78 | IL21 (interleukin 21)
1.36 | 0.9 | 0.66 | PPP1CC (protein phosphatase 1 catalytic subunit gamma)
1.08 | 1.1 | 1.02 | ZDHHC14 (zDHHC palmitoyltransferase 14)
1.14 | 0.75 | 0.66 | H4C14 (H4 clustered histone 14)
0.89 | 0.67 | 0.75 | CACNA2D4
0.89 | 0.55 | 0.62 | PSMC3IP (PSMC3 interacting protein)
1.02 | 0.9 | 0.88 | CD36 (CD36 molecule (CD36 blood group))
1.22 | 0.71 | 0.58 | DNAJB11 (DnaJ heat shock protein family (Hsp40) member B11)
1.05 | 0.79 | 0.75 | POFUT2 (protein O-fucosyltransferase 2)
1.26 | 0.73 | 0.58 | KCNK4 (potassium two pore domain channel subfamily K member 4)
0.83 | 0.7 | 0.84 | ZNF878 (zinc finger protein 878)
1.1 | 0.92 | 0.84 | ATP1B1 (ATPase Na+/K+ transporting subunit beta 1)
0.98 | 0.88 | 0.9 | PHF6 (PHD finger protein 6)
1 | 0.62 | 0.62 | USP40 (ubiquitin specific peptidase 40)
1.39 | 0.93 | 0.67 | GPR42 (G protein-coupled receptor 42)
0.86 | 0.55 | 0.64 | SLC44A2
0.68 | 0.68 | 1 | COX19 (cytochrome c oxidase assembly factor COX19)
0.98 | 0.86 | 0.88 | TERF1 (telomeric repeat binding factor 1)
0.81 | 0.78 | 0.96 | CGNL1 (cingulin like 1)
0.76 | 0.59 | 0.78 | CNTFR (ciliary neurotrophic factor receptor)
0.94 | 0.66 | 0.7 | MAPK8IP1 (mitogen-activated protein kinase 8 interacting protein 1)
1.15 | 0.76 | 0.66 | FAM169BP (family with sequence similarity 169 member B, pseudogene)
0.94 | 0.66 | 0.7 | GRPEL2 (GrpE like 2, mitochondrial)
0.89 | 0.82 | 0.92 | APOBEC2 (apolipoprotein B mRNA editing enzyme catalytic subunit 2)
1.14 | 1.12 | 0.98 | PKDREJ (polycystin family receptor for egg jelly)
1.16 | 0.66 | 0.57 | PIP (prolactin induced protein)
0.77 | 0.88 | 1.15 | PCNX4 (pecanex 4)
1.12 | 0.9 | 0.8 | USP48 (ubiquitin specific peptidase 48)
0.89 | 0.72 | 0.81 | POTEG (POTE ankyrin domain family member G)
1.06 | 0.84 | 0.79 | SLC9A2
0.86 | 0.38 | 0.44 | NXPH2 (neurexophilin 2)
0.88 | 0.64 | 0.73 | TNK2 (tyrosine kinase non receptor 2)
0.98 | 0.54 | 0.55 | IL17D (interleukin 17D)
0.71 | 0.6 | 0.84 | BUD23 (BUD23 rRNA methyltransferase and ribosome maturation factor)
1.15 | 0.9 | 0.78 | OR6C76 (olfactory receptor family 6 subfamily C member 76)
0.68 | 0.46 | 0.68 | SELE (selectin E)
1 | 0.6 | 0.6 | POF1B (POF1B actin binding protein)
0.88 | 0.63 | 0.72 | GIGYF1 (GRB10 interacting GYF protein 1)
1.03 | 1.01 | 0.98 | LACTB (lactamase beta)
1.13 | 1.1 | 0.97 | OR5J2 (olfactory receptor family 5 subfamily J member 2)
1.03 | 1.11 | 1.08 | ATP5F1E (ATP synthase F1 subunit epsilon)
